# The exact form of at least one protein or probe is not confirmed. For some of these results: At least one verdict rests on a figure or table, not on a statement of the authors. Tags and fusion partners may be left off the protein sequences shown.
# Assays:
# [1] = target: T1, Ms4022 (TetR family regulator) (Mycobacterium smegmatis mc2 155) (UniProt A0QZH0); experiment: competition with a labelled probe; details: unlabelled competitor vs labelled Ms4022p; EMSA: 50 mM Tris-HCl pH 7.5, 10 mM MgCl2, 50 mM NaCl, 4 C 30 min, 5% native PAGE in 0.5x TBE at room temperature; recombinant protein; protein details: N-terminal His (pET28a); probe letters rebuilt from the primers and the genome
# T1 sequence (looked up, limits assumed): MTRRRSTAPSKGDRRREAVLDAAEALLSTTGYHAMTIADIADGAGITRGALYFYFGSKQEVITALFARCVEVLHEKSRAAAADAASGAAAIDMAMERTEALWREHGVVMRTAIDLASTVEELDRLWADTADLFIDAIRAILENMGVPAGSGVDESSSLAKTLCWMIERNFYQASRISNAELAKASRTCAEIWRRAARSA
# [2] = target: T1, Ms4022 (TetR family regulator) (Mycobacterium smegmatis mc2 155); experiment: DNase I footprinting; details: footprinting: binding as in EMSA, DNase I at 37 C; recombinant protein; protein details: N-terminal His (pET28a); probe letters rebuilt from the primers and the genome
# [3] = target: T1, Ms4022 (TetR family regulator) (Mycobacterium smegmatis mc2 155); experiment: EMSA; details: EMSA: 50 mM Tris-HCl pH 7.5, 10 mM MgCl2, 50 mM NaCl, 4 C 30 min, 5% native PAGE in 0.5x TBE at room temperature, recombinant protein, protein details: N-terminal His (pET28a)
Sequence,binding result [1],binding result [2],binding result ([3]; probe letters rebuilt from the primers and the genome),binding result [3]
GACGGAATTCACTTGACCCGACGGAGATCGACCGCGCCGAGCAAAGGCGACCGGCGACGCGAAGCGGTGTTGGACGCGGCCGAGGCTCTCCTGAGCACGACGGGTTATCACGCGATGACGATCGCGGATATTGCCGACGGCGCGGGCATCACCCGCGGTGCGCTCTACTTCTACTTCGGCTCGAAGCAGGAGGTCATCACAGCTCTGTTTGCGCGCTGCGTCGAAGTGCTGCACGAGAAGTCCCGAGCAGCGGCCGCTGACGCCGCCAGCGGGGCCGCCGCCATCGATATGGCGATGGAGCGCACGGAGGCGCTGTGGCGCGAGCACGGCGTGGTGATGCGCACGGCGATCGATCTCGCTTCCACCGTCGAGGAGCTCGACAGGCTGTGGGCCGATACCGCCGATCTGTTCATCGACGCCATCAGGGCGATCTTGGAGAACATGGGAGTGCCGGCAGGTTCAGGCGTGGACGAATCCTCGTCGCTCGCCAAAACGTTGTGCTGGATGATCGAACGGAACTTCTATCAGGCCTCACGGATTTCGAACGCAGAACTGGCGAAGGCGAGTCGGACCTGTGCCGAGATCTGGCGGCGGGCTGCGCGCAGCGCATGATCTAGAATAT (double strand) [Ms4022p],binds,binds,binds,
CCGCCATCTCAATAAGCACAGTGTCGAAAAAAATAAGCA (double strand) [F1],,,,binds

# Reference: PMC4895335
